# PubChem BioAssay AID504784 | Drosophila RNAi Screening Center | 2011
# Screen: 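Fly genes whose silencing alters how much lipid cells keep in droplets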 (primary screen)
# System: Drosophila Kc167 embryonic cells
# Reagents: long dsRNA against Drosophila genes, about 250 ng dsRNA per well
# Timing: 4 days
# Treatment: cells fed 400 µM oleic acid bound to BSA
# Read-out: 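Cells imaged and segmented; ratio of lipid droplet area to nuclear area, log-transformed, then normalised as a B-score over the screen; higher means more stored lipid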
# Direction: droplet/nuclear area B-score: higher = more stored lipid (overstorage)
# The screen tested about 17,000 reagents; this is an unselected part of those that have a named target and a result. 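Each column is one replicate's B-score; the combined score over replicates was not deposited, so single values may mislead.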 Not all columns of the deposit are shown. Reagent sequences are not shown.
target,amplicon,"droplet/nuclear area B-score, replicate 1"
Galphai (G protein alpha subunit i),DRSC11168,0.369
Tace,DRSC16340,0.368
CG5267,DRSC06928,1.3
OdsH (Ods-site homeobox),DRSC20263,1.25
CG8673,DRSC03105,1.45
Tsc1,DRSC16890,-2.44
CG6052,DRSC10574,-0.174
CG31051,DRSC15034,0.44
CG8665,DRSC03098,-3.31
Cp36 (Chorion protein 36),DRSC18452,0.115
flz (filzig),DRSC07109,-0.933
CG15544,DRSC15082,-0.709
Pde6 (Phosphodiesterase 6),DRSC16401,0.614
Pde6 (Phosphodiesterase 6),DRSC16402,0.839
Pde6 (Phosphodiesterase 6),DRSC16403,0.493
Elp6 (Elongator complex protein 6),DRSC16571,2.15
CG42748,DRSC03712,-1.15
CG42748,DRSC03713,-0.927
CG42748,DRSC03734,-0.0295
Art6 (Arginine methyltransferase 6),DRSC16583,3.34
pdm2 (POU domain protein 2),DRSC02496,1.86
pdm2 (POU domain protein 2),DRSC02497,0.587
pdm2 (POU domain protein 2),DRSC03587,-0.802
CG2129,DRSC18209,1.49
PH4alphaPV (prolyl-4-hydroxylase-alpha PV),DRSC22400,-0.301
lms (lateral muscles scarcer),DRSC06387,-0.0667
pncr003:2L (retired record),DRSC22149,4.09
CG7497,DRSC10857,0.029
otk (off-track),DRSC07658,-0.0493
Gp150,DRSC04618,4.22
Mal-A8 (Maltase A8),DRSC07234,-0.187
CG1607,DRSC15130,-0.643
CG14752,DRSC06488,-0.0546
CG9705,DRSC11094,-0.664

Records listed so far whose gene name starts with T or t:
target,amplicon,"droplet/nuclear area B-score, replicate 1"
Tace,DRSC16340,0.368
Tsc1,DRSC16890,-2.44
